Article doi:10.1101/672824
Results are given in words; binding and its absence hold for the method and conditions named. Binding seen in cells or lysates may run through a third protein. A result given as binding can be weak or reduced; the word gives no strength. Sequences can lack the tags named with a protein.

Biological target: T1, wild-type TWIST1 BiFC fusions (TWIST1-CC155 and TWIST1-VN173) (mouse) (UniProt P26687)
T1 sequence: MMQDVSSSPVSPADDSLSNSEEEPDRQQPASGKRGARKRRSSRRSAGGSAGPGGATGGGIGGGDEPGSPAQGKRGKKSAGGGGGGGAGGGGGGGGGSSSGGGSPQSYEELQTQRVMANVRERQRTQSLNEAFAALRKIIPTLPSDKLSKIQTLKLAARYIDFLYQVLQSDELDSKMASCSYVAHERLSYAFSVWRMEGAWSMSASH
Assay: split reporter

Substance	binding
TWIST1 T121E; S123E-CC155 (phospho-mimetic double mutant) (mouse)	binds
TWIST1 lacking the N-terminus, CC155 fusion (mouse) (domain or fragment)	binds
